# Laboratory results: the supplement of paper PMC8728848
# This is one part of the list.
# B1: NanH (Corynebacterium diphtheriae), C6JSW6 (protein)
# chain: MYSSNRTYSRAILGLSAVLTLSFTSLVAPVNAEEPETVVPATAELEGEVAATLPSAETGLLDAAPPKPVARGAAGDLQLPAVNEKEVFEEGRVIRAPEPDQSRCYRIPALVTAKNGDLLLAFDNRYGGGDGAKTWCRDAPYENMKRINRQNMQTDIQLYRSVDNGQSFEDFGYIAQGTADVRELSYTDPALVTDRTTGKIFAFFVRAYDYRVGQSSAGFNEGDVEAEIQKRDVQDTVVVESLDGGQTWGNMRLLSALTAKVSSISTGDTIFDGRGRFVTSGAGIQLQYGEHAGRLIVPISVDIDPKDSAKFINLAIYSDDHGQTWQAGIGTAGGAGFSGDVSKIVELSDGRLMMSSKDNDKPRWVSYSEDQGENWSTPKRKIIAPPQHPEKHNTGINVGLIRAYPNAPENSAAARVLLYSAPIDQRYSHKHTEDGRNNGWVMGSCDDGKTWSFGRQIEKNRFQYSSMTVMSDGNIGMVYESGDFSTGMNLKFAKFNMAWLGADCHSNEALGLTGDIDKEIVEAQEKAAEATKEAQEAAEKVQKLTEELAAARKENDELKNQVKGFKEAVGDLANEAEDLADKVFKLETAVTEAKEKATVAEKAASDAVTQLQKAESIAEEQKAKAESAAAEAQALREKLERLEGSILTVKENPEAEEIADLSSTAKDAADAARRAATDANGALSGQKQDEEKPAMGLMGILKVLAGIIPLVAIIATIFQTFRLPFNIPGMR
# How the values were obtained:
# Test in all cases: glycan array binding signal (z-score within array); higher = stronger binding
# Settings in all cases: glycan notation: IUPAC condensed, linker removed
# [1] = molecular target: Neu5Ac(a2-3)Gal(b1-4)GlcNAc(b1-3)Gal
# Summary of the method: (§1)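 Glycan array binding is given as a within-array Z-score, which can be read as non-binding when negative. The arrays, 3228 of them, came from the Consortium for Functional Glycomics database and were retained only where the protein sequence was available. Z-scores were averaged across arrays of the same protein sequence at different concentrations or buffers and across linkers.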
# [2] = molecular target: Neu5Ac(a2-3)Gal(b1-4)GlcNAc(b1-3)Gal(b1-3)GlcNAc
# Summary of the method: as §1
# [3] = molecular target: Neu5Ac(a2-3)Gal(b1-4)GlcNAc(b1-3)Gal(b1-4)GlcNAc
# Summary of the method: as §1
# [4] = molecular target: Neu5Ac(a2-3)Gal(b1-4)GlcNAc(b1-3)Gal(b1-4)GlcNAc(b1-3)Gal(b1-4)GlcNAc
# Summary of the method: as §1
# [5] = molecular target: Neu5Ac(a2-3)Gal(b1-4)GlcNAc(b1-3)Gal(b1-4)[Fuc(a1-3)]GlcNAc
# Summary of the method: as §1
# [6] = molecular target: Neu5Ac(a2-3)Gal(b1-4)GlcNAc(b1-3)GalNAc
# Summary of the method: as §1
# [7] = molecular target: Neu5Ac(a2-3)Gal(b1-4)GlcNAc(b1-6)[Gal(b1-3)]GalNAc
# Summary of the method: as §1
# [8] = molecular target: Neu5Ac(a2-3)Gal(b1-4)GlcNAc(b1-6)[Neu5Ac(a2-3)Gal(b1-3)]GalNAc
# Summary of the method: as §1
# [9] = molecular target: Neu5Ac(a2-3)Gal(b1-4)GlcNAc6S
# Summary of the method: as §1
# [10] = molecular target: Neu5Ac(a2-3)Gal(b1-4)[Fuc(a1-3)]GlcNAc
# Summary of the method: as §1
# [11] = molecular target: Neu5Ac(a2-3)Gal(b1-4)[Fuc(a1-3)]GlcNAc(b1-3)Gal
# Summary of the method: as §1
# [12] = molecular target: Neu5Ac(a2-3)Gal(b1-4)[Fuc(a1-3)]GlcNAc(b1-3)Gal(b1-4)GlcNAc
# Summary of the method: as §1
# [13] = molecular target: Neu5Ac(a2-3)Gal(b1-4)[Fuc(a1-3)]GlcNAc(b1-3)Gal(b1-4)[Fuc(a1-3)]GlcNAc(b1-3)Gal(b1-4)[Fuc(a1-3)]GlcNAc
# Summary of the method: as §1
# [14] = molecular target: Neu5Ac(a2-3)Gal(b1-4)[Fuc(a1-3)]GlcNAc(b1-3)GalNAc
# Summary of the method: as §1
# [15] = molecular target: Neu5Ac(a2-3)Gal(b1-4)[Fuc(a1-3)]GlcNAc(b1-6)[Gal(b1-3)]GalNAc
# Summary of the method: as §1
# [16] = molecular target: Neu5Ac(a2-3)Gal(b1-4)[Fuc(a1-3)]GlcNAc6S
# Summary of the method: as §1
# [17] = molecular target: Neu5Ac(a2-3)Gal6S(b1-4)GlcNAc
# Summary of the method: as §1
# [18] = molecular target: Neu5Ac(a2-3)Gal6S(b1-4)[Fuc(a1-3)]GlcNAc
# Summary of the method: as §1
# [19] = molecular target: Neu5Ac(a2-3)GalNAc
# Summary of the method: as §1
# [20] = molecular target: Neu5Ac(a2-3)GalNAc(b1-4)GlcNAc
# Summary of the method: as §1
# [21] = molecular target: Neu5Ac(a2-3)[GalNAc(b1-4)]Gal(b1-4)Glc
# Summary of the method: as §1
# [22] = molecular target: Neu5Ac(a2-3)[GalNAc(b1-4)]Gal(b1-4)GlcNAc
# Summary of the method: as §1
# [23] = molecular target: Neu5Ac(a2-3)[GalNAc(b1-4)]Gal(b1-4)GlcNAc(b1-3)GalNAc
# Summary of the method: as §1
# [24] = molecular target: Neu5Ac(a2-3)[Neu5Ac(a2-6)]GalNAc
# Summary of the method: as §1
# [25] = molecular target: Neu5Ac(a2-6)Gal
# Summary of the method: as §1
# [26] = molecular target: Neu5Ac(a2-6)Gal(b1-3)GlcNAc(b1-3)[Gal(b1-4)GlcNAc(b1-6)]Gal(b1-4)Glc
# Summary of the method: as §1
# [27] = molecular target: Neu5Ac(a2-6)Gal(b1-4)Glc
# Summary of the method: as §1
# [28] = molecular target: Neu5Ac(a2-6)Gal(b1-4)GlcNAc
# Summary of the method: as §1
# [29] = molecular target: Neu5Ac(a2-6)Gal(b1-4)GlcNAc(b1-2)Man(a1-3)Man(b1-4)GlcNAc(b1-4)GlcNAc
# Summary of the method: as §1
# [30] = molecular target: Neu5Ac(a2-6)Gal(b1-4)GlcNAc(b1-2)Man(a1-3)[Gal(b1-4)GlcNAc(b1-2)Man(a1-6)]Man(b1-4)GlcNAc(b1-4)GlcNAc
# Summary of the method: as §1
binder,measurement,setting,value
B1,glycan array binding signal (z-score),[1],-0.21
same,glycan array binding signal (z-score),[2],-0.216
same,glycan array binding signal (z-score),[3],-0.265
same,glycan array binding signal (z-score),[4],-1.33
same,glycan array binding signal (z-score),[5],1.67
same,glycan array binding signal (z-score),[6],-0.067
same,glycan array binding signal (z-score),[7],0.096
same,glycan array binding signal (z-score),[8],1.28
same,glycan array binding signal (z-score),[9],0.263
same,glycan array binding signal (z-score),[10],-0.681
same,glycan array binding signal (z-score),[11],-0.518
same,glycan array binding signal (z-score),[12],1.67
same,glycan array binding signal (z-score),[13],-1.45
same,glycan array binding signal (z-score),[14],0.742
same,glycan array binding signal (z-score),[15],0.351
same,glycan array binding signal (z-score),[16],-1
same,glycan array binding signal (z-score),[17],-1.04
same,glycan array binding signal (z-score),[18],-0.72
same,glycan array binding signal (z-score),[19],-0.952
same,glycan array binding signal (z-score),[20],-1.16
same,glycan array binding signal (z-score),[21],0.651
same,glycan array binding signal (z-score),[22],-0.594
same,glycan array binding signal (z-score),[23],-0.358
same,glycan array binding signal (z-score),[24],-0.803
same,glycan array binding signal (z-score),[25],-1.05
same,glycan array binding signal (z-score),[26],0.06
same,glycan array binding signal (z-score),[27],0.051
same,glycan array binding signal (z-score),[28],0.068
same,glycan array binding signal (z-score),[29],-0.294
same,glycan array binding signal (z-score),[30],0.061

# Two entries from above, reformatted:
binder | measurement | setting | value
B1 | glycan array binding signal (z-score) | [2] | -0.216
same | glycan array binding signal (z-score) | [3] | -0.265
